Cleaved PARP after 72 h of treatment

Compounds and concentrations:
GW9662, 10 µM: O=C(Nc1ccccc1)c1cc([N+](=O)[O-])ccc1Cl
lenalidomide, 5 µM: Nc1cccc2c1CN(C1CCC(=O)NC1=O)C2=O (configuration not stated)
FK866, 0.05 µM: O=C(/C=C/c1cccnc1)NCCCCC1CCN(C(=O)c2ccccc2)CC1
enzastaurin, 4 µM: Cn1cc(C2=C(c3cn(C4CCN(Cc5ccccn5)CC4)c4ccccc34)C(=O)NC2=O)c2ccccc21
temozolomide, 10 µM: Cn1nnc2c(C(N)=O)ncn2c1=O
everolimus, 0.1 µM: CO[C@H]1C[C@@H]2CC[C@@H](C)[C@@](O)(O2)C(=O)C(=O)N2CCCC[C@H]2C(=O)O[C@H]([C@H](C)C[C@@H]2CC[C@@H](OCCO)[C@H](OC)C2)CC(=O)[C@H](C)/C=C(\C)[C@@H](O)[C@@H](OC)C(=O)[C@H](C)C[C@H](C)/C=C/C=C/C=C/1C
fludarabine, 1 µM: Nc1nc(F)nc2c1ncn2[C@@H]1O[C@H](CO)[C@@H](O)[C@@H]1O
dorsomorphin, 2 µM: c1cc(-c2cnn3cc(-c4ccc(OCCN5CCCCC5)cc4)cnc23)ccn1

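The test systems are human melanoma cell lines, treated with two drugs together for 72 h and then stained and imaged. Each value is the cleaved-PARP-positive fraction of nuclei relative to DMSO-treated wells, in %, so that 100 equals the control and higher values mean more apoptosis. Concentrations were fixed for each drug; these are the higher of two levels. The file gives one value for each pair and line, without errors, so small differences may be noise. The marker varies much from line to line, for technical or biological reasons.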 This is part of the screen, not chosen by result. A dash means that no value is listed here.

| Drugs | A101D | IPC-298 | A2058 | A375 | RVH-421 | LOX IMVI | MZ2-MEL | MEL-HO | G-361 | MeWo |
|---|---|---|---|---|---|---|---|---|---|---|
| fludarabine and dorsomorphin | 326 | 40.3 | 237 | 753 | 162 | 21.3 | 98.7 | 192 | 174 | 186 |
| lenalidomide and fludarabine | 235 | 45.5 | 89.5 | 504 | 75.0 | 87.6 | 152 | 181 | 92.4 | 120 |
| lenalidomide and enzastaurin | 142 | 79.8 | 244 | 104 | 269 | 171 | 124 | 39.1 | 131 | 69.0 |
| lenalidomide and everolimus | 144 | 226 | 196 | 53.0 | 120 | 84.1 | 146 | 104 | 188 | 70.3 |
| FK866 and fludarabine | 46.9 | 283 | 139 | 178 | 1640 | 35.7 | - | 203 | 7900 | 72.6 |
| temozolomide and enzastaurin | 76.0 | 93.4 | 620 | 41.1 | 60.5 | 37.6 | 44.7 | 44.4 | 74.1 | 59.4 |
| GW9662 and everolimus | 136 | 54.8 | 235 | 77.8 | 343 | 566 | 306 | 106 | 37.6 | 247 |
| GW9662 and enzastaurin | 511 | 97.6 | 314 | 119 | 221 | 72.5 | 109 | 91.6 | 183 | 171 |
| fludarabine and everolimus | 165 | 137 | 173 | 485 | 64.6 | 313 | 184 | 83.8 | 105 | 18.0 |
| FK866 and dorsomorphin | 190 | 865 | 165 | 54.8 | 263 | 26.8 | 1310 | 230 | 8140 | 70.4 |
| everolimus and dorsomorphin | 192 | 113 | 174 | 238 | 94.5 | 142 | 101 | 127 | 207 | 123 |
| temozolomide and FK866 | 70.3 | 618 | 327 | 35.8 | 287 | 66.8 | 772 | 198 | 5630 | 101 |
| FK866 and everolimus | 124 | 713 | 137 | 137 | 173 | 50.9 | 168 | 179 | 3520 | 15.8 |
| enzastaurin and everolimus | 76.5 | 216 | 214 | 131 | 59.7 | 104 | 108 | 178 | 91.6 | 125 |
| temozolomide and GW9662 | 57.8 | 208 | 1750 | 49.1 | 224 | 158 | 170 | 53.7 | 96.2 | 26.2 |
| FK866 and lenalidomide | 71.3 | 706 | 120 | 61.0 | 1040 | 86.5 | 1080 | 88.6 | 5530 | 139 |
| FK866 and enzastaurin | 73.9 | 841 | 128 | 133 | 222 | 43.5 | 794 | 274 | 6470 | 80.2 |
| lenalidomide and GW9662 | 157 | 79.1 | 60.9 | 49.3 | 165 | 201 | 36.7 | 51.6 | 157 | 150 |
| enzastaurin and fludarabine | 116 | 36.0 | 173 | 339 | 477 | 138 | 57.9 | 46.4 | 198 | 81.3 |
| FK866 and GW9662 | 136 | 165 | 76.1 | 21.9 | 82.6 | 293 | 1300 | 815 | 7180 | 196 |
| dorsomorphin and enzastaurin | 223 | 41.5 | 202 | 179 | 34.0 | 133 | 116 | 87.4 | 217 | 174 |
| fludarabine and GW9662 | 143 | 80.6 | 86.6 | 591 | 158 | 259 | 151 | 252 | 137 | 167 |
| dorsomorphin and GW9662 | 83.5 | 98.9 | 185 | 146 | 197 | 122 | 300 | 50.5 | 146 | 107 |
| lenalidomide and temozolomide | 79.3 | 127 | 307 | 89.8 | 76.5 | 225 | 158 | 72.0 | 132 | 64.4 |
| lenalidomide and dorsomorphin | 55.2 | 22.7 | 174 | 97.1 | 107 | 69.4 | 82.5 | 45.8 | 357 | 85.3 |

Repeated from the top, 3 entries:

| Drugs | A101D | IPC-298 | A2058 | A375 | RVH-421 | LOX IMVI | MZ2-MEL | MEL-HO | G-361 | MeWo |
|---|---|---|---|---|---|---|---|---|---|---|
| fludarabine and dorsomorphin | 326 | 40.3 | 237 | 753 | 162 | 21.3 | 98.7 | 192 | 174 | 186 |
| lenalidomide and fludarabine | 235 | 45.5 | 89.5 | 504 | 75.0 | 87.6 | 152 | 181 | 92.4 | 120 |
| lenalidomide and enzastaurin | 142 | 79.8 | 244 | 104 | 269 | 171 | 124 | 39.1 | 131 | 69.0 |

Data from the primary screen of doi:10.1371/journal.pone.0140310, rounded.